Test results taken from PubChem BioAssay AID250 (DTP/NCI, 2004).
The list is a part of this screen's results and no random one: it gathers tests that were run many times, whatever their T/C, doses with no T/C, and many T/C values between a quarter and a half above the control. Other doses and runs of a compound stand elsewhere. T/C is the treated group as % of the vehicle group. Some doses have a count of surviving animals in place of a T/C: the source files T/C as zero there, which appears to mark a toxic dose or a test without result, not a measured value. Counts of survivors are from the toxicity check (mostly the fifth day) where no day follows; animals may have died later. Schedule codes are those of the source, read here as Q, the interval in days (D) or hours (H), X, the number of doses. Some schedule codes hold Z or #, which are not explained here. Some entries were tested several times; their values stand side by side, smallest first.

Tested on: BDF1 mice, L1210 leukemia sc, survival T/C
Assay: NCI In Vivo Anticancer Drug Screen. Data for tumor model L1210 Leukemia (subcutaneous) in B6D2F1 (BDF1) mice
Conditions: T/C endpoint: median survival time, higher T/C = longer survival
Description: The antitumor activity of compounds was measured in mice bearing transplantable tumors. Survival or tumor size were measured and the results are expressed as the measurement made in the treated group (T) divided by the measurement made in the vehicle treated control group (C). The tumor model used in this assay is L1210 Leukemia (subcutaneous) in B6D2F1 (BDF1) mice

[1] = dose: 5.0 mg/kg/injection, schedule: Q01DX Z (sc), vehicle: methylcellulose (MC)
[2] = dose: 8.4 mg/kg/injection, schedule: Q01DX Z (sc), vehicle: methylcellulose (MC)
[3] = dose: 14.0 mg/kg/injection, schedule: Q01DX Z (sc), vehicle: methylcellulose (MC)
[4] = dose: 108.0 mg/kg/injection, schedule: Q01DX Z (sc), vehicle: saline
[5] = dose: 65.0 mg/kg/injection, schedule: Q01DX Z (sc), vehicle: water
[6] = dose: 108.0 mg/kg/injection, schedule: Q01DX Z (sc), vehicle: water
[7] = dose: 180.0 mg/kg/injection, schedule: Q01DX Z (sc), vehicle: water
[8] = dose: 300.0 mg/kg/injection, schedule: Q01DX Z (sc), vehicle: water

## C[n+]1c2ccccc2c(Nc2ccc(NS(=O)(=O)CCCCN=C(N)N)cc2)c2ccc(N)cc21
dose: 24.0 mg/kg/injection, schedule: Q01DX009 (ip), vehicle: water
  survivor count: 5 of 10

## C[n+]1c2ccccc2nc2c(N)cc(N)cc21
[1]
  survivor count: 3 of 8
[2]
  survivor count: 4 of 8
[3]
  survivor count: 5 of 8
dose: 65.0 mg/kg/injection, schedule: Q01DX Z (sc), vehicle: saline
  survivor count: 6 of 10
dose: 108.0 mg/kg/injection, schedule: Q01DX Z (sc), vehicle: methylcellulose (MC)
  survivor count: 2 of 8
[4]
  survivor count: 0 of 10

## C[n+]1c2cc(N)ccc2cc2ccc(N)cc21
dose: 39.0 mg/kg/injection, schedule: Q01DX Z (sc), vehicle: water
  survivor count: 0 of 8 and 4 of 10
[5]
  survivor count: 0 of 10 and 0 of 8
[6]
  survivor count: 0 of 10 and 0 of 8
[7]
  survivor count: 0 of 10 and 0 of 8
[8]
  survivor count: 0 of 10 and 0 of 8
dose: 500.0 mg/kg/injection, schedule: Q01DX Z (sc), vehicle: water
  survivor count: 0 of 10

## CN(C)c1ccc(/C=C/c2cc[n+](C)c3ccccc23)cc1
[1]
  survivor count: 0 of 10

## O=C(CCN1CC1)OCCOC(=O)CCN1CC1
dose: 2.8 mg/kg/injection, schedule: Q01DX Z (sc), vehicle: saline
  survivor count: 5 of 10
dose: 36.0 mg/kg/injection, schedule: Q01DX Z (sc), vehicle: saline
  survivor count: 1 of 10
dose: 60.0 mg/kg/injection, schedule: Q01DX Z (sc), vehicle: saline
  survivor count: 0 of 10
dose: 100.0 mg/kg/injection, schedule: Q01DX Z (sc), vehicle: saline
  survivor count: 0 of 10

## O=C(Nc1ccc(C2=NCCN2)cc1)c1ccc(C(=O)Nc2ccc(C3=NCCN3)cc2)c([N+](=O)[O-])c1
dose: 5.0 mg/kg/injection, schedule: Q01DX Z (sc), vehicle: saline
  survivor count: 6 of 10
dose: 23.0 mg/kg/injection, schedule: Q01DX Z (sc), vehicle: saline
  survivor count: 6 of 10
[5]
  survivor count: 6 of 10
dose: 108.0 mg/kg/injection, schedule: Q01DX Z (ip), vehicle: water
  survivor count: 0 of 10
[4]
  survivor count: 2 of 10
[6]
  survivor count: 5 of 10
dose: 180.0 mg/kg/injection, schedule: Q01DX Z (ip), vehicle: water
  survivor count: 0 of 10
dose: 180.0 mg/kg/injection, schedule: Q01DX Z (sc), vehicle: saline
  survivor count: 0 of 10
[7]
  survivor count: 0 of 10
dose: 300.0 mg/kg/injection, schedule: Q01DX Z (sc), vehicle: saline
  survivor count: 0 of 10
[8]
  survivor count: 0 of 10

## CN(C)Nc1ncnc2nc[nH]c12
[7]
  survivor count: 4 of 10

## O=C(O)CS
dose: 180.0 mg/kg/injection, schedule: Q01DX Z (sc), vehicle: methylcellulose (MC)
  survivor count: 2 of 10
dose: 300.0 mg/kg/injection, schedule: Q01DX Z (sc), vehicle: methylcellulose (MC)
  survivor count: 0 of 10

## CCc1nc(N)nc(N)c1-c1ccc(Cl)cc1
[3]
  survivor count: 2 of 10
dose: 23.0 mg/kg/injection, schedule: Q01DX Z (sc), vehicle: methylcellulose (MC)
  survivor count: 2 of 10
dose: 39.0 mg/kg/injection, schedule: Q01DX Z (sc), vehicle: methylcellulose (MC)
  survivor count: 4 of 10
dose: 65.0 mg/kg/injection, schedule: Q01DX Z (sc), vehicle: methylcellulose (MC)
  survivor count: 4 of 10

## O=c1[nH]c(=S)c2[nH]c(=O)[nH]c2[nH]1
dose: 1.08 mg/kg/injection, schedule: Q01DX Z (sc), vehicle: methylcellulose (MC)
  survivor count: 6 of 10
dose: 1.8 mg/kg/injection, schedule: Q01DX Z (sc), vehicle: methylcellulose (MC)
  survivor count: 6 of 10
[2]
  survivor count: 4 of 10

## CO[C@H](C(=O)[C@@H](O)[C@@H](C)O)[C@@H]1Cc2cc3cc(OC4CC(OC5CC(O)C(O)C(C)O5)C(O)C(C)O4)c(C)c(O)c3c(O)c2C(=O)[C@H]1OC1CC(OC2CC(OC3CC(C)(O)C(O)C(C)O3)C(O)C(C)O2)C(O)C(C)O1 (some centres not stated)
dose: 0.5 mg/kg/injection, schedule: Q01DX009 (ip), vehicle: water
  survivor count: 6 of 10
dose: 1.0 mg/kg/injection, schedule: Q01DX009 (sc), vehicle: water
  survivor count: 6 of 10
dose: 2.0 mg/kg/injection, schedule: Q01DX009 (ip), vehicle: water
  survivor count: 0 of 10
